# Data as given in PubChem BioAssay AID1259308 (NCATS, 2017)
# Purpose: 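Genes whose loss raises luciferase production in HEK293 cells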 (primary screen)
# Cells: human HEK293 embryonic kidney cells stably expressing firefly luciferase (HEK-CMV-Luc2-Hygro)
# Reagent: single siRNA against human genes, 0.8 pmol siRNA per well
# Timing: 72 h
# Read-out: 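Luciferase light (ONE-Glo) measured on one replicate plate set and viability (CellTiter-Glo) on the other, scaled to a negative control siRNA, with robust z-scores and luciferase per cell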
# Scale: total luciferase, z-score: higher = more reporter protein produced
# Hit rule: 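Active when the median/MAD z-score for overall luciferase is greater than 3; a gene was taken forward for validation with new siRNAs if at least two of its three siRNAs passed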
# Meaning of the calls: active = raised luciferase; inactive = no rise
# The whole screen tested about 59,000 reagents; this is an unselected part. About 1,510 of all reagents (2.6%) count as active. 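Calls use total luciferase alone and ignore viability, so some active siRNAs may act by altering cell number.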 Unmarked entries are inactive. Reagents against one gene are numbered here. Not all columns of the deposit are shown.
gene symbol,reagent no.,"total luciferase, z-score"
CHCHD6 (coiled-coil-helix-coiled-coil-helix domain containing 6),1,1.54
CHCHD6 (coiled-coil-helix-coiled-coil-helix domain containing 6),2,-0.444
CHCHD6 (coiled-coil-helix-coiled-coil-helix domain containing 6),3,1.49
REPIN1 (replication initiator 1),1,0.396
REPIN1 (replication initiator 1),2,-0.485
REPIN1 (replication initiator 1),3,0.66
OR8G2P (olfactory receptor family 8 subfamily G member 2 pseudogene),1,-0.0019
OR8G2P (olfactory receptor family 8 subfamily G member 2 pseudogene),2,0.207
OR8G2P (olfactory receptor family 8 subfamily G member 2 pseudogene),3,0.893
WDR5B (WD repeat domain 5B),1,-2.31
WDR5B (WD repeat domain 5B),2,-0.474
WDR5B (WD repeat domain 5B),3,-2.21
CDK2AP2 (cyclin dependent kinase 2 associated protein 2),1,0.152
CDK2AP2 (cyclin dependent kinase 2 associated protein 2),2,1.08
CDK2AP2 (cyclin dependent kinase 2 associated protein 2),3,-0.111
GGTLC1 (gamma-glutamyltransferase light chain 1),1,0.0559
GGTLC1 (gamma-glutamyltransferase light chain 1),2,-0.875
GGTLC1 (gamma-glutamyltransferase light chain 1),3,-1.65
SCG5 (secretogranin V),1,0.161
SCG5 (secretogranin V),2,0.048
SCG5 (secretogranin V),3,-0.961
ARHGAP27P1 (Rho GTPase activating protein 27 pseudogene 1),1,4.09 (active)
ARHGAP27P1 (Rho GTPase activating protein 27 pseudogene 1),2,-0.745
ARHGAP27P1 (Rho GTPase activating protein 27 pseudogene 1),3,-2.01
GADD45G (growth arrest and DNA damage inducible gamma),1,0.112
GADD45G (growth arrest and DNA damage inducible gamma),2,0.512
GADD45G (growth arrest and DNA damage inducible gamma),3,-0.766

Sorted by “total luciferase, z-score” (highest first): some entries from above
gene symbol,reagent no.,"total luciferase, z-score"
CDK2AP2 (cyclin dependent kinase 2 associated protein 2),2,1.08
SCG5 (secretogranin V),1,0.161
CDK2AP2 (cyclin dependent kinase 2 associated protein 2),1,0.152
GGTLC1 (gamma-glutamyltransferase light chain 1),1,0.0559
SCG5 (secretogranin V),2,0.048
CDK2AP2 (cyclin dependent kinase 2 associated protein 2),3,-0.111
GGTLC1 (gamma-glutamyltransferase light chain 1),2,-0.875
SCG5 (secretogranin V),3,-0.961
GGTLC1 (gamma-glutamyltransferase light chain 1),3,-1.65

More records follow:
gene symbol,reagent no.,"total luciferase, z-score"
TMEM259 (transmembrane protein 259),1,-0.576
TMEM259 (transmembrane protein 259),2,-1.19
TMEM259 (transmembrane protein 259),3,-0.707
SLC6A8,1,0.706
SLC6A8,2,0.956
SLC6A8,3,3.12 (active)
XYLT1 (xylosyltransferase 1),1,-1.24
XYLT1 (xylosyltransferase 1),2,0.414
XYLT1 (xylosyltransferase 1),3,0.0784
TNFSF14 (TNF superfamily member 14),1,0.419
TNFSF14 (TNF superfamily member 14),2,-0.129
TNFSF14 (TNF superfamily member 14),3,1.67
CAMKK2 (calcium/calmodulin dependent protein kinase kinase 2),1,-0.112
CAMKK2 (calcium/calmodulin dependent protein kinase kinase 2),2,2.76
CAMKK2 (calcium/calmodulin dependent protein kinase kinase 2),3,2.15
TYRO3 (TYRO3 protein tyrosine kinase),1,-0.976
TYRO3 (TYRO3 protein tyrosine kinase),2,0.901
TYRO3 (TYRO3 protein tyrosine kinase),3,0.466
LALBA (lactalbumin alpha),1,-1.47
LALBA (lactalbumin alpha),2,0.228
LALBA (lactalbumin alpha),3,0.0142
SAP18 (Sin3A associated protein 18),1,0.277
SAP18 (Sin3A associated protein 18),2,0.225
SAP18 (Sin3A associated protein 18),3,-0.545
ACVRL1 (activin A receptor like type 1),1,-1.41
ACVRL1 (activin A receptor like type 1),2,-0.776
ACVRL1 (activin A receptor like type 1),3,0.021
SERPINB8 (serpin family B member 8),1,-0.492
SERPINB8 (serpin family B member 8),2,2.55
SERPINB8 (serpin family B member 8),3,0.155
